Test results as given in the supplement of paper PMC9233669.
Variants at the background level are over-represented here.

Assays:
biotinyl-Val-oxazolone = test: self-aminoacylation, catalytic enhancement (BVO) (fold over background); higher = more active; k-Seq, kA / k0A0; sequences stand for … in GGGAAUGGAUCCACAUCUACGAAUUC…UUCACUGCAGACUUGACGAAGCUG
Procedure, shortened: (§1)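 Catalytic enhancement equals the median kA over the uncatalyzed rate, the latter read from the low-activity peak of a bimodal Gaussian fit. Values of kA came from fitting each sequence's fraction reacted to a pseudo-first-order model, with 1000 bootstraps. Reacted RNA was captured with streptavidin and quantified by triplicate qPCR and Illumina sequencing after 90 minutes at room temperature with 2–1250 μM biotinyl-aminoacyl-oxazolone and 0.43 μM mutagenized RNA pools bearing a 21-nt variable region.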

biotinyl-Phe-oxazolone = test: self-aminoacylation, catalytic enhancement (BFO) (fold over background); higher = more active; k-Seq, kA / k0A0; sequences stand for … in GGGAAUGGAUCCACAUCUACGAAUUC…UUCACUGCAGACUUGACGAAGCUG
Procedure, shortened: as §1

biotinyl-Leu-oxazolone = test: self-aminoacylation, catalytic enhancement (BLO) (fold over background); higher = more active; k-Seq, kA / k0A0; sequences stand for … in GGGAAUGGAUCCACAUCUACGAAUUC…UUCACUGCAGACUUGACGAAGCUG
Procedure, shortened: as §1

biotinyl-Trp-oxazolone = test: self-aminoacylation, catalytic enhancement (BWO) (fold over background); higher = more active; k-Seq, kA / k0A0; sequences stand for … in GGGAAUGGAUCCACAUCUACGAAUUC…UUCACUGCAGACUUGACGAAGCUG
Procedure, shortened: as §1

biotinyl-Ile-oxazolone = test: self-aminoacylation, catalytic enhancement (BIO) (fold over background); higher = more active; k-Seq, kA / k0A0; sequences stand for … in GGGAAUGGAUCCACAUCUACGAAUUC…UUCACUGCAGACUUGACGAAGCUG
Procedure, shortened: as §1

biotinyl-Met-oxazolone = test: self-aminoacylation, catalytic enhancement (BMO) (fold over background); higher = more active; k-Seq, kA / k0A0; sequences stand for … in GGGAAUGGAUCCACAUCUACGAAUUC…UUCACUGCAGACUUGACGAAGCUG
Procedure, shortened: as §1

Sequence	self-aminoacylation (biotinyl-Val-oxazolone)	self-aminoacylation (biotinyl-Phe-oxazolone)	self-aminoacylation (biotinyl-Leu-oxazolone)	self-aminoacylation (biotinyl-Trp-oxazolone)	self-aminoacylation (biotinyl-Ile-oxazolone)	self-aminoacylation (biotinyl-Met-oxazolone)
AAGUUUGCAAAUAGUCGUAAG [Fam3.1 aminoacylation ribozyme variant]	0.747	0.992	0.627	0.988	0.717	1.05
AAGUUUGCCAAGAGUCGCAAG [Fam3.1 aminoacylation ribozyme variant]	1.04	1.08	1.43	1.49	1.17	0.829
AAGUUUGCGAAUAGUCGUAAG [Fam3.1 aminoacylation ribozyme variant]	0.665	0.591	0.69	0.709	0.676	0.656
AAGUUUGCGAUUAGUCGCAAG [Fam3.1 aminoacylation ribozyme variant]	0.957	1.39	1.24	1.67	1.03	1.6
AAGUUUGCUAAAAGUCGGAAG [Fam3.1 aminoacylation ribozyme variant]	0.924	5.57	0.778	1.22	0.814	0.755
AAGUUUGCUAAACGUCGCAAG [Fam3.1 aminoacylation ribozyme variant]	0.542	0.887	0.537	0.603	0.739	0.608
AAGUUUGCUAACACUCGCAAG [Fam3.1 aminoacylation ribozyme variant]	0.988	0.873	0.828	0.996	1.11	0.857
AAGUUUGCUAACAUUCGCAAG [Fam3.1 aminoacylation ribozyme variant]	0.945	1.41	0.918	1.37	1.18	0.885
AAGUUUGCUAAGACUCGCAAG [Fam3.1 aminoacylation ribozyme variant]	0.97	0.878	0.675	0.776	0.771	0.73
AAGUUUGCUAAGAGCCGCAAG [Fam3.1 aminoacylation ribozyme variant]	0.695	1.1	0.614	0.83	0.622	0.806
AAGUUUGCUAAUAACCGCAAG [Fam3.1 aminoacylation ribozyme variant]	0.737	1.03	0.485	0.794	0.783	0.682
AAGUUUGCUAAUAAUCGCAGG [Fam3.1 aminoacylation ribozyme variant]	0.857	1.17	0.897	1.05	1.07	1.03
AAGUUUGCUAAUAAUGGCAAG [Fam3.1 aminoacylation ribozyme variant]	0.727	0.786	0.479	0.585	0.644	0.599
AAGUUUGCUAAUACUCGCUAG [Fam3.1 aminoacylation ribozyme variant]	0.507	0.624	0.594	0.445	0.63	0.532
AAGUUUGCUAAUAGACGCAAU [Fam3.1 aminoacylation ribozyme variant]	1.05	1.74	0.806	0.827	1.11	0.911
AAGUUUGCUAAUAGCCCCAAG [Fam3.1 aminoacylation ribozyme variant]	0.814	1.32	0.989	1.08	0.918	0.606
AAGUUUGCUAAUAGGCACAAG [Fam3.1 aminoacylation ribozyme variant]	0.735	1.37	0.742	0.552	0.799	0.755
AAGUUUGCUAAUAGGCGCAAC [Fam3.1 aminoacylation ribozyme variant]	0.997	1.19	1.27	1.39	1.15	1.32
AAGUUUGCUAAUAGUCCCAAC [Fam3.1 aminoacylation ribozyme variant]	0.643	1.04	0.585	0.629	0.639	0.505
AAGUUUGCUAAUAGUCCCUAG [Fam3.1 aminoacylation ribozyme variant]	0.988	1.29	0.786	0.898	0.917	0.896
AAGUUUGCUAAUAGUCGCUUG [Fam3.1 aminoacylation ribozyme variant]	0.745	0.791	0.738	0.995	0.844	0.763
AAGUUUGCUAAUAGUCGGAAA [Fam3.1 aminoacylation ribozyme variant]	1.27	1.15	0.966	0.897	1.53	1.05
AAGUUUGCUAAUAGUCGUAGG [Fam3.1 aminoacylation ribozyme variant]	0.957	1.69	0.869	0.884	0.894	0.92
AAGUUUGCUAAUAGUCUCAGG [Fam3.1 aminoacylation ribozyme variant]	1.32	1.44	1.26	1.42	1.42	1.35
AAGUUUGCUAAUAGUCUCUAG [Fam3.1 aminoacylation ribozyme variant]	0.845	1.52	0.693	0.906	0.921	0.943
AAGUUUGCUAAUAGUGACAAG [Fam3.1 aminoacylation ribozyme variant]	1.04	1.55	0.657	1.25	0.844	0.828

Sequence	self-aminoacylation (biotinyl-Val-oxazolone)	self-aminoacylation (biotinyl-Phe-oxazolone)	self-aminoacylation (biotinyl-Leu-oxazolone)	self-aminoacylation (biotinyl-Trp-oxazolone)	self-aminoacylation (biotinyl-Ile-oxazolone)	self-aminoacylation (biotinyl-Met-oxazolone)
AAGUUUGCUAAUAGUGGCAGG [Fam3.1 aminoacylation ribozyme variant]	0.634	0.939	1.08	1.11	0.868	0.798
AAGUUUGCUAAUAGUGGCCAG [Fam3.1 aminoacylation ribozyme variant]	0.669	0.779	0.736	1.29	0.746	0.838
AAGUUUGCUAAUAGUGGGAAG [Fam3.1 aminoacylation ribozyme variant]	1.03	1.48	0.876	0.598	0.841	0.971
AAGUUUGCUAAUAGUUGCAAG [Fam3.1 aminoacylation ribozyme variant]	0.975	1.42	0.872	0.998	1.01	1.03
AAGUUUGCUAAUAGUUGCAGG [Fam3.1 aminoacylation ribozyme variant]	1.17	1.72	1.64	1.23	1.45	1.06
AAGUUUGCUAAUAUUCACAAG [Fam3.1 aminoacylation ribozyme variant]	1.45	1.21	1.38	1.56	1.39	1.75
AAGUUUGCUAAUAUUCGCCAG [Fam3.1 aminoacylation ribozyme variant]	1.06	0.921	1.37	0.947	1.05	1.28
AAGUUUGCUAAUCGUCGCCAG [Fam3.1 aminoacylation ribozyme variant]	1.57	1.06	1.32	1.72	1.19	1.02
AAGUUUGCUAAUGCUCGCAAG [Fam3.1 aminoacylation ribozyme variant]	0.945	0.708	0.856	0.676	0.834	0.779
AAGUUUGCUAAUGGUCGCAAU [Fam3.1 aminoacylation ribozyme variant]	1.18	3.15	1.17	1.45	1.14	1
AAGUUUGCUAAUUGACGCAAG [Fam3.1 aminoacylation ribozyme variant]	0.833	1.18	0.716	0.772	0.774	0.937
AAGUUUGCUAAUUGUCGCACG [Fam3.1 aminoacylation ribozyme variant]	0.744	0.764	0.742	1.24	0.919	0.587
AAGUUUGCUAAUUGUCGUAAG [Fam3.1 aminoacylation ribozyme variant]	0.8	1.73	0.782	1.2	0.776	0.772
AAGUUUGCUACUAGUCGCAAU [Fam3.1 aminoacylation ribozyme variant]	1.2	1.02	1.05	0.974	1.23	0.874
AAGUUUGCUAGUAGUCGCCAG [Fam3.1 aminoacylation ribozyme variant]	0.975	0.843	0.774	1.91	0.825	0.852
AAGUUUGCUAGUAGUCGCUAG [Fam3.1 aminoacylation ribozyme variant]	0.794	1.34	1.04	0.8	0.758	0.796
AAGUUUGCUAGUAGUCGUAAG [Fam3.1 aminoacylation ribozyme variant]	0.76	1.49	0.614	0.662	0.718	0.715
AAGUUUGCUAUUAGCCGCAAG [Fam3.1 aminoacylation ribozyme variant]	0.634	0.714	0.834	0.62	0.766	0.683
AAGUUUGCUAUUAGUCGCAAU [Fam3.1 aminoacylation ribozyme variant]	1.32	1.11	1.14	1.43	1.41	1.49
AAGUUUGCUAUUAGUCGCGAG [Fam3.1 aminoacylation ribozyme variant]	1.03	4.31	1.73	2.3	1.39	1.34
AAGUUUGCUCAGAGUCGCAAG [Fam3.1 aminoacylation ribozyme variant]	0.8	0.857	0.715	0.953	0.812	0.922
AAGUUUGCUCAUAGUCUCAAG [Fam3.1 aminoacylation ribozyme variant]	0.901	1.98	0.977	0.98	0.872	0.869
AAGUUUGCUCAUAUUCGCAAG [Fam3.1 aminoacylation ribozyme variant]	0.828	1.05	0.934	0.812	0.957	0.912
AAGUUUGCUGAUAGUCGAAAG [Fam3.1 aminoacylation ribozyme variant]	0.869	1.37	1.07	1.22	1.14	1.19
AAGUUUGCUUAUAGCCGCAAG [Fam3.1 aminoacylation ribozyme variant]	0.658	1.36	0.71	0.793	0.776	0.698
